For part of these data: The comparison behind a weaker result is the experiment's own reference, which may not be listed here. Where a protein sequence is shown, tags need not be part of it. For part of these data: Results from cells or extracts need not show a direct contact. For part of these data: A negative result means that nothing was seen under these conditions.
How the values were obtained:
[1] = molecular target: T1, NF-ATp (renatured from SDS gel, Ar-5 hypotonic extract) (Mus musculus) (UniProt Q60591); assay: EMSA; details: poly(dI:dC), 84 mM NaCl, 20 mM KCl; fully self-competed; protein in an extract; label: 32P
T1 sequence (limits assumed): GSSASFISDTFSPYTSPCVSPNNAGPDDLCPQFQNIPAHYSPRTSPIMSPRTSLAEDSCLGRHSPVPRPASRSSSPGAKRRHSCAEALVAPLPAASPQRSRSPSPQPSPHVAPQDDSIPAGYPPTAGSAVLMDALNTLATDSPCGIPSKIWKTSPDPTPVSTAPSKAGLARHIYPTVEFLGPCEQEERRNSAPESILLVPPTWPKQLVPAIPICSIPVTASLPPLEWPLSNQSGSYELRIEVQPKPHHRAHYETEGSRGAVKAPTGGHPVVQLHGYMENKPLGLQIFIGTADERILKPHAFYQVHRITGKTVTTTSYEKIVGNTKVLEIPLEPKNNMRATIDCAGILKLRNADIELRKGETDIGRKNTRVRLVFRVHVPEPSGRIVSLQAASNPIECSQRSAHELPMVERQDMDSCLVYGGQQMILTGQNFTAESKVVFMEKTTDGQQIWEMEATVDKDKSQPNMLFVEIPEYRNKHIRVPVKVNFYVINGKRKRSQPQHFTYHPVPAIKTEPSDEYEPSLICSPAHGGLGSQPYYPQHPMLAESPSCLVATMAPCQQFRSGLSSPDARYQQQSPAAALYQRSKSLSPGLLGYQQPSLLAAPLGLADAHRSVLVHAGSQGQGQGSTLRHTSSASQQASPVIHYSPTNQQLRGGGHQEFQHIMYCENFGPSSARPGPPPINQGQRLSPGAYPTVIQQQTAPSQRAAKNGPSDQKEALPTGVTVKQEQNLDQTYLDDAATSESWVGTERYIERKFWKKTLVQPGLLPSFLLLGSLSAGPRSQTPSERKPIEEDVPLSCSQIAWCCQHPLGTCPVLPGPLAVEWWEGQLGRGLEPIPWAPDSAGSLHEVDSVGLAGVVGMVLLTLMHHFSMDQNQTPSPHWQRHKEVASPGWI

[2] = molecular target: T2, NF-ATp (renatured from SDS gel, nuclear extract of stimulated Ar-5) (Mus musculus) (UniProt Q60591); assay: EMSA; details: poly(dI:dC), 84 mM NaCl, 20 mM KCl; fully self-competed; protein in an extract; label: 32P
T2 sequence (limits assumed): T1 sequence (limits assumed)

[3] = molecular target: T1, NF-ATp (renatured from SDS gel, Ar-5 hypotonic extract) (Mus musculus); assay: competition with a labelled probe; details: 200-fold excess, protein in an extract
[4] = molecular target: T2, NF-ATp (renatured from SDS gel, nuclear extract of stimulated Ar-5) (Mus musculus); assay: competition with a labelled probe; details: 200-fold excess, protein in an extract
[5] = molecular target: T3, NF-ATp XS (464-aa recombinant fragment of murine NF-ATp) (Mus musculus) (UniProt Q60591); assay: competition with a labelled probe; details: 200-fold excess competes with intermediate efficiency; purified recombinant protein
T3 sequence: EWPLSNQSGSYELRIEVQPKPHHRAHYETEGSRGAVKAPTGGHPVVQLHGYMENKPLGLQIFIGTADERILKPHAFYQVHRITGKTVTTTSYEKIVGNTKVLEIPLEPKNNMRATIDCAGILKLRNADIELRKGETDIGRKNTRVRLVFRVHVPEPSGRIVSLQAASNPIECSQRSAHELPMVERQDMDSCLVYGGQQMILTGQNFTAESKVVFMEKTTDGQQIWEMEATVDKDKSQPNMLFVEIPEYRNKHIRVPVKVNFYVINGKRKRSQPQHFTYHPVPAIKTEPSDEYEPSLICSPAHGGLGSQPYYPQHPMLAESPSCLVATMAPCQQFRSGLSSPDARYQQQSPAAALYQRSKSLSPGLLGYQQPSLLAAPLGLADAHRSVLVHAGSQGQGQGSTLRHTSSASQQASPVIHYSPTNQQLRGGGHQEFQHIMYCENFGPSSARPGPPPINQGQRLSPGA

“GCCCAAAGAGGAAAATTTGTTTCATACAG (double strand)”: binds [1]; binds [2].
“GCCCAAAGAGGAAAATTTGTTTATATCAG (double strand) [M1]”: binds ([3]; complete competition); binds ([4]; complete competition).
“GCCCAAAGACCTTAATTTGTTTCATACAG (double strand) [M3]”: no binding ([3]; no competition); no binding ([4]; no competition).
“GCCCAAAGAGGAAAATGGACTTCATACAG (double strand) [M2]”: binds more weakly ([3]; partial competition); binds more weakly ([4]; partial competition); binds more weakly [5].

From patent US5656452A, “NF-ATp, ' a T lymphocyte DNA-binding protein” (President and Fellows of Harvard College, priority 1993, dated 1997)
